Results are given in words; binding and its absence hold for the method and conditions named. Some results given as binding are weak or reduced against the parent protein; the word gives no strength.
Molecular target: C5aR1 on PMNs (UniProt P21730)
Assay: flow cytometry on cells; 10 ng Cy5-labeled human C5a on PMNs (resting or stimulated with 10 ng/mL TNF-α for 12 h), 4 °C, 0.5 h; PMNs preincubated with C5aR1-antibody, C5aR2-antibody, Cp1 or combinations; only the binder purified

Sequences of proteins named here, by UniProt entry; tags and fusion partners are left off. Residues count along the entry.
UniProt P21730: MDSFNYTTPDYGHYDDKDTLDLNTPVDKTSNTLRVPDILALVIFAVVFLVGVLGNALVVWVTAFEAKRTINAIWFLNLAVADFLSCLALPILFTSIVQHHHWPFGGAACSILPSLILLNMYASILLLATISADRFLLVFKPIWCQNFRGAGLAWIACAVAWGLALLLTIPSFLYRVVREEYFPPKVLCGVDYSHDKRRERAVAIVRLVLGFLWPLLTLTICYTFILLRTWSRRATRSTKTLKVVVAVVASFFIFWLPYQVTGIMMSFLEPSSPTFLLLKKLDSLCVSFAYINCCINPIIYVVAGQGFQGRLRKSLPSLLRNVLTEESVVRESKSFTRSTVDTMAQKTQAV
UniProt P01031, residues 678-751: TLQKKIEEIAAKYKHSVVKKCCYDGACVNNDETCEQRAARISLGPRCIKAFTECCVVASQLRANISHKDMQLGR

binding: binds
Substance: Cy5-labeled human C5a (from UniProt P01031 678-751) (ligand)
